Reference: the supplement of paper PMC8728848
Some of the results follow.

Tests used:
Assay in all cases: glycan array binding signal (z-score within array); higher = stronger binding
Details in all cases: glycan notation: IUPAC condensed, linker removed
GlcNAc(b1-3)Gal(b1-4)Glc = target: GlcNAc(b1-3)Gal(b1-4)Glc
Outline: (§1)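 From the Consortium for Functional Glycomics database, 3228 arrays were curated, keeping only those whose protein sequence was available. Binding is given as a within-array Z-score averaged across arrays sharing a protein sequence and across linkers. Negative Z-scores can be read as non-binding.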

[1] = target: GlcNAc(b1-3)Gal(b1-4)GlcNAc
Outline: as §1

[2] = target: GlcNAc(b1-3)Gal(b1-4)GlcNAc(b1-3)Gal(b1-4)GlcNAc
Outline: as §1

GlcNAc(b1-3)GalNAc = target: GlcNAc(b1-3)GalNAc
Outline: as §1

GlcNAc(b1-3)Man = target: GlcNAc(b1-3)Man
Outline: as §1

[3] = target: GlcNAc(b1-3)[GlcNAc(b1-4)][GlcNAc(b1-6)]GlcNAc
Outline: as §1

[4] = target: GlcNAc(b1-3)[GlcNAc(b1-6)]Gal(b1-4)GlcNAc
Outline: as §1

[5] = target: GlcNAc(b1-3)[GlcNAc(b1-6)]GalNAc
Outline: as §1

[6] = target: GlcNAc(b1-4)Gal(b1-4)GlcNAc
Outline: as §1

GlcNAc(b1-4)GlcNAc = target: GlcNAc(b1-4)GlcNAc
Outline: as §1

[7] = target: GlcNAc(b1-4)GlcNAc(b1-4)GlcNAc
Outline: as §1

[8] = target: GlcNAc(b1-4)GlcNAc(b1-4)GlcNAc(b1-4)GlcNAc(b1-4)GlcNAc
Outline: as §1

[9] = target: GlcNAc(b1-4)GlcNAc(b1-4)GlcNAc(b1-4)GlcNAc(b1-4)GlcNAc(b1-4)GlcNAc
Outline: as §1

[10] = target: GlcNAc(b1-4)[GlcNAc(b1-6)]GalNAc
Outline: as §1

[11] = target: GlcNAc(b1-6)Gal(b1-4)GlcNAc
Outline: as §1

GlcNAc(b1-6)GalNAc = target: GlcNAc(b1-6)GalNAc
Outline: as §1

GlcNAc3Prop(b1-4)GlcNAc = target: GlcNAc3Prop(b1-4)GlcNAc
Outline: as §1

[12] = target: GlcNAc6S(b1-3)Gal(b1-4)GlcNAc
Outline: as §1

Kdn(a2-3)Gal(b1-3)GalNAc = target: Kdn(a2-3)Gal(b1-3)GalNAc
Outline: as §1

Kdn(a2-3)Gal(b1-3)GlcNAc = target: Kdn(a2-3)Gal(b1-3)GlcNAc
Outline: as §1

Kdn(a2-3)Gal(b1-4)Glc = target: Kdn(a2-3)Gal(b1-4)Glc
Outline: as §1

Kdn(a2-3)Gal(b1-4)GlcNAc = target: Kdn(a2-3)Gal(b1-4)GlcNAc
Outline: as §1

[13] = target: Kdn(a2-3)Gal(b1-4)[Fuc(a1-3)]GlcNAc
Outline: as §1

Kdn(a2-6)Gal(b1-4)GlcNAc = target: Kdn(a2-6)Gal(b1-4)GlcNAc
Outline: as §1

[14] = target: Man(a1-2)Man(a1-2)Man(a1-3)Man
Outline: as §1

[15] = target: Man(a1-2)Man(a1-2)Man(a1-6)[Man(a1-3)]Man
Outline: as §1

Man(a1-2)Man(a1-3)Man = target: Man(a1-2)Man(a1-3)Man
Outline: as §1

[16] = target: Man(a1-2)Man(a1-3)[Man(a1-2)Man(a1-6)]Man
Outline: as §1

[17] = target: Man(a1-2)Man(a1-3)[Man(a1-2)Man(a1-6)]Man(a1-6)[Man(a1-2)Man(a1-2)Man(a1-3)]Man
Outline: as §1

[18] = target: Man(a1-2)Man(a1-3)[Man(a1-2)Man(a1-6)]Man(a1-6)[Man(a1-2)Man(a1-2)Man(a1-3)]Man(b1-4)GlcNAc(b1-4)GlcNAc
Outline: as §1

[19] = target: Man(a1-2)Man(a1-3)[Man(a1-6)]Man(a1-6)[Man(a1-2)Man(a1-3)]Man(b1-4)GlcNAc(b1-4)GlcNAc
Outline: as §1

[20] = target: Man(a1-2)Man(a1-6)[Man(a1-3)]Man(a1-6)[Man(a1-2)Man(a1-2)Man(a1-3)]Man
Outline: as §1

[21] = target: Man(a1-2)Man(a1-6)[Man(a1-3)]Man(a1-6)[Man(a1-2)Man(a1-2)Man(a1-3)]Man(b1-4)GlcNAc(b1-4)GlcNAc
Outline: as §1

Man(a1-3)[Man(a1-6)]Man = target: Man(a1-3)[Man(a1-6)]Man
Outline: as §1

[22] = target: Man(a1-3)[Man(a1-6)]Man(a1-6)[Man(a1-2)Man(a1-3)]Man(b1-4)GlcNAc(b1-4)GlcNAc
Outline: as §1

[23] = target: Man(a1-3)[Man(a1-6)]Man(a1-6)[Man(a1-3)]Man
Outline: as §1

[24] = target: Man(a1-3)[Man(a1-6)]Man(a1-6)[Man(a1-3)]Man(b1-4)GlcNAc(b1-4)GlcNAc
Outline: as §1

[25] = target: Man(a1-3)[Man(a1-6)]Man(b1-4)GlcNAc(b1-4)GlcNAc
Outline: as §1

Man(a1-6)Man = target: Man(a1-6)Man
Outline: as §1

Man(b1-4)GlcNAc = target: Man(b1-4)GlcNAc
Outline: as §1

Neu5Ac(a2-3)Gal = target: Neu5Ac(a2-3)Gal
Outline: as §1

[26] = target: Neu5Ac(a2-3)Gal(b1-3)GalNAc
Outline: as §1

[27] = target: Neu5Ac(a2-3)Gal(b1-3)GalNAc(b1-3)Gal(a1-4)Gal(b1-4)Glc
Outline: as §1

[28] = target: Neu5Ac(a2-3)Gal(b1-3)GalNAc(b1-4)[Neu5Ac(a2-3)]Gal(b1-4)Glc
Outline: as §1

[29] = target: Neu5Ac(a2-3)Gal(b1-3)GalNAc(b1-4)[Neu5Ac(a2-8)Neu5Ac(a2-3)]Gal(b1-4)Glc
Outline: as §1

[30] = target: Neu5Ac(a2-3)Gal(b1-3)GalNAc6S
Outline: as §1

[31] = target: Neu5Ac(a2-3)Gal(b1-3)GlcNAc
Outline: as §1

[32] = target: Neu5Ac(a2-3)Gal(b1-3)GlcNAc(b1-3)Gal(b1-3)GlcNAc
Outline: as §1

[33] = target: Neu5Ac(a2-3)Gal(b1-3)GlcNAc(b1-3)Gal(b1-4)GlcNAc
Outline: as §1

[34] = target: Neu5Ac(a2-3)Gal(b1-3)GlcNAc(b1-3)GalNAc
Outline: as §1

[35] = target: Neu5Ac(a2-3)Gal(b1-3)GlcNAc6S
Outline: as §1

[36] = target: Neu5Ac(a2-3)Gal(b1-3)[Fuc(a1-4)]GlcNAc
Outline: as §1

[37] = target: Neu5Ac(a2-3)Gal(b1-3)[Fuc(a1-4)]GlcNAc(b1-3)Gal(b1-3)[Fuc(a1-4)]GlcNAc
Outline: as §1

[38] = target: Neu5Ac(a2-3)Gal(b1-3)[Fuc(a1-4)]GlcNAc(b1-3)Gal(b1-4)[Fuc(a1-3)]GlcNAc
Outline: as §1

[39] = target: Neu5Ac(a2-3)Gal(b1-3)[Neu5Ac(a2-3)Gal(b1-4)]GlcNAc
Outline: as §1

[40] = target: Neu5Ac(a2-3)Gal(b1-3)[Neu5Ac(a2-6)]GalNAc
Outline: as §1

Neu5Ac(a2-3)Gal(b1-4)Glc = target: Neu5Ac(a2-3)Gal(b1-4)Glc
Outline: as §1

[41] = target: Neu5Ac(a2-3)Gal(b1-4)GlcNAc
Outline: as §1

[42] = target: Neu5Ac(a2-3)Gal(b1-4)GlcNAc(b1-2)Man(a1-3)[GlcNAc(b1-2)Man(b1-4)GlcNAc(b1-2)Man(a1-6)]Man(b1-4)GlcNAc(b1-4)GlcNAc
Outline: as §1

[43] = target: Neu5Ac(a2-3)Gal(b1-4)GlcNAc(b1-2)Man(a1-3)[Neu5Ac(a2-6)Gal(b1-4)GlcNAc(b1-2)Man(a1-6)]Man(b1-4)GlcNAc(b1-4)GlcNAc
Outline: as §1

[44] = target: Neu5Ac(a2-3)Gal(b1-4)GlcNAc(b1-3)Gal
Outline: as §1

[45] = target: Neu5Ac(a2-3)Gal(b1-4)GlcNAc(b1-3)Gal(b1-3)GlcNAc
Outline: as §1

[46] = target: Neu5Ac(a2-3)Gal(b1-4)GlcNAc(b1-3)Gal(b1-4)GlcNAc
Outline: as §1

[47] = target: Neu5Ac(a2-3)Gal(b1-4)GlcNAc(b1-3)Gal(b1-4)GlcNAc(b1-3)Gal(b1-4)GlcNAc
Outline: as §1

[48] = target: Neu5Ac(a2-3)Gal(b1-4)GlcNAc(b1-3)Gal(b1-4)[Fuc(a1-3)]GlcNAc
Outline: as §1

B1: DCL-1 (Homo sapiens), Q8IX05 (protein)
chain: MLRAALPALLLPLLGLAAAAVADCPSSTWIQFQDSCYIFLQEAIKVESIEDVRNQCTDHGADMISIHNEEENAFILDTLKKQWKGPDDILLGMFYDTDDASFKWFDNSNMTFDKWTDQDDDEDLVDTCAFLHIKTGEWKKGNCEVSSVEGTLCKTAIPYKRKYLSDNHILISALVIASTVILTVLGAIIWFLYKKHSDSRFTTVFSTAPQSPYNEDCVLVVGEENEYPVQFD
glycan array binding signal (z-score) (GlcNAc(b1-3)Gal(b1-4)Glc): -1.25
glycan array binding signal (z-score) [1]: -0.305
glycan array binding signal (z-score) [2]: -0.074
glycan array binding signal (z-score) (GlcNAc(b1-3)GalNAc): -0.013
glycan array binding signal (z-score) (GlcNAc(b1-3)Man): -0.813
glycan array binding signal (z-score) [3]: -0.42
glycan array binding signal (z-score) [4]: -1.34
glycan array binding signal (z-score) [5]: 0.07
glycan array binding signal (z-score) [6]: -0.427
glycan array binding signal (z-score) (GlcNAc(b1-4)GlcNAc): -0.726
glycan array binding signal (z-score) [7]: -0.503
glycan array binding signal (z-score) [8]: -0.519
glycan array binding signal (z-score) [9]: 0.08
glycan array binding signal (z-score) [10]: -0.48
glycan array binding signal (z-score) [11]: -0.008
glycan array binding signal (z-score) (GlcNAc(b1-6)GalNAc): -0.659
glycan array binding signal (z-score) (GlcNAc3Prop(b1-4)GlcNAc): -0.813
glycan array binding signal (z-score) [12]: -1.26
glycan array binding signal (z-score) (Kdn(a2-3)Gal(b1-3)GalNAc): 0.017
glycan array binding signal (z-score) (Kdn(a2-3)Gal(b1-3)GlcNAc): -0.584
glycan array binding signal (z-score) (Kdn(a2-3)Gal(b1-4)Glc): -0.493
glycan array binding signal (z-score) (Kdn(a2-3)Gal(b1-4)GlcNAc): -0.12
glycan array binding signal (z-score) [13]: -1.07
glycan array binding signal (z-score) (Kdn(a2-6)Gal(b1-4)GlcNAc): 0.047
glycan array binding signal (z-score) [14]: -0.704
glycan array binding signal (z-score) [15]: -0.826
glycan array binding signal (z-score) (Man(a1-2)Man(a1-3)Man): -0.662
glycan array binding signal (z-score) [16]: -0.811
glycan array binding signal (z-score) [17]: 0.35
glycan array binding signal (z-score) [18]: 2.43
glycan array binding signal (z-score) [19]: 0.13
glycan array binding signal (z-score) [20]: -0.485
glycan array binding signal (z-score) [21]: 1.01
glycan array binding signal (z-score) (Man(a1-3)[Man(a1-6)]Man): -0.463
glycan array binding signal (z-score) [22]: 10.6
glycan array binding signal (z-score) [23]: 0.819
glycan array binding signal (z-score) [24]: -0.104
glycan array binding signal (z-score) [25]: 1
glycan array binding signal (z-score) (Man(a1-6)Man): 0.664
glycan array binding signal (z-score) (Man(b1-4)GlcNAc): 1.61
glycan array binding signal (z-score) (Neu5Ac(a2-3)Gal): -0.032
glycan array binding signal (z-score) [26]: -0.514
glycan array binding signal (z-score) [27]: 3.04
glycan array binding signal (z-score) [28]: -1.36
glycan array binding signal (z-score) [29]: -0.059
glycan array binding signal (z-score) [30]: 0.066
glycan array binding signal (z-score) [31]: -0.114
glycan array binding signal (z-score) [32]: 1.43
glycan array binding signal (z-score) [33]: -0.257
glycan array binding signal (z-score) [34]: -0.021
glycan array binding signal (z-score) [35]: 0.514
glycan array binding signal (z-score) [36]: 1.14
glycan array binding signal (z-score) [37]: -0.194
glycan array binding signal (z-score) [38]: -0.022
glycan array binding signal (z-score) [39]: 0.512
glycan array binding signal (z-score) [40]: 0.682
glycan array binding signal (z-score) (Neu5Ac(a2-3)Gal(b1-4)Glc): 0.171
glycan array binding signal (z-score) [41]: 0.242
glycan array binding signal (z-score) [42]: -1.07
glycan array binding signal (z-score) [43]: 0.261
glycan array binding signal (z-score) [44]: 1.98
glycan array binding signal (z-score) [45]: 0.181
glycan array binding signal (z-score) [46]: -0.879
glycan array binding signal (z-score) [47]: -0.828
glycan array binding signal (z-score) [48]: -0.479
